Results are given in words; binding and its absence hold for the method and conditions named. Binding seen in cells or lysates may run through a third protein. Some binding calls cover weakened binding; strength is not graded here.
Legend:
[1] = molecular target: amyloid-beta precursor protein (APP), endogenous mouse (mouse (endogenous in HT-22 and in mouse hippocampus)) (UniProt P12023); experiment: proximity ligation; in situ Duolink PLA on fixed control and CHCHD6 KO HT-22 cells with anti-APP and anti-CHCHD6 antibodies
[2] = molecular target: amyloid-beta precursor protein (APP), endogenous mouse (mouse (endogenous in HT-22 and in mouse hippocampus)) (UniProt P12023); experiment: proximity ligation; in situ Duolink PLA on mouse brain sections (hippocampus; WT, APP^NL-G-F and 5XFAD mice) with anti-APP and anti-CHCHD6 antibodies
[3] = molecular target: amyloid-beta precursor protein (APP), endogenous mouse (mouse (endogenous in HT-22 and in mouse hippocampus)) (UniProt P12023); experiment: co-IP; total protein lysates of control and CHCHD6 KO HT-22 cells (50 mM Tris-HCl pH 7.5, 150 mM NaCl, 1% Triton X-100); IP with anti-APP antibody overnight at 4 °C, protein A/G beads, WB

Amino acid sequences for entries named in this document (tags omitted). Residues count along the entry.
UniProt P12023, residues 18-770: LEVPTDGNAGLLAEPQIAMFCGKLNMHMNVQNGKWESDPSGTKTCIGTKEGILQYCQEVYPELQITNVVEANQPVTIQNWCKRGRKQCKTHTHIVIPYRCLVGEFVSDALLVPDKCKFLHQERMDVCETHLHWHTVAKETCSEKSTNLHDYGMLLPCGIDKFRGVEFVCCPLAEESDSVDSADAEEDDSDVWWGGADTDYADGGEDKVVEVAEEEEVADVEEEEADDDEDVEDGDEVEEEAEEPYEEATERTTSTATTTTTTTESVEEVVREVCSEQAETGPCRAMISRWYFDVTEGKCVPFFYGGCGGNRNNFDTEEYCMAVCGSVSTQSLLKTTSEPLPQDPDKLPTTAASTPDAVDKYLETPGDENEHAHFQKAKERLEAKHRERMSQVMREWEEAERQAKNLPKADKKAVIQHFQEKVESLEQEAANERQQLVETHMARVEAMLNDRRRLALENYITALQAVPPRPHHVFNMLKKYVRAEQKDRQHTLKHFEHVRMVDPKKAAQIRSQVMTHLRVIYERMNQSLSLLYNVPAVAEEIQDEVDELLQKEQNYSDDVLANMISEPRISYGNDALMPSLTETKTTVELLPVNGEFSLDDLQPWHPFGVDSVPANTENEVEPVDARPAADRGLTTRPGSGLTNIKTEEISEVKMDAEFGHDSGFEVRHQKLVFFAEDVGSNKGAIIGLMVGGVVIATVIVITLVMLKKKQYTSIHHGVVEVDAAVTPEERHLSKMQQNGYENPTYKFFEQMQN

binding [1]: binds
binding [2]: binds
binding [3]: binds
B1: coiled-coil-helix-coiled-coil-helix domain containing 6 (CHCHD6), endogenous mouse (protein, UniProt Q91VN4 1-273)
chain: MGSAESAEARRVSFEMDEEERVRVLQGIRLSESVVNRMKDCSQPSAGEQLVPGFGPSSSAPVPTVPLPAISVPTVPAPTTPVPTAPSSSVRGLPGGTCKGPLTDVKVPSAESGGGLQSSAVKEDLKKFQQEQLAVQDEMVRVAKKEKEAAEKHLKASLPKKKASLTHEQQQSARLARELEDREAELSRRDTFYKEQQGRIQEKNAELYKLSSQQFHEAASKAESTIKPRRVEPVCSGLQAQILRCYRDHLHEVLLCSDLVKAYQHCVSTARKG
